Source: patent US20250368734A1
Substitutions are numbered along the chain they refer to. No constants are given. Whether binding was seen depends on the method and setting. Binding calls can cover weak binding; strength is not graded here.

B1: ch98A3A8 (antibody, V domains shown)
VH: EVQLQQSGPELVKPGASVKMSCKASGYTFTYYVTHWVRQKPGQGLEWIGYINPYNDGTMFNEKFKGKATLTSDKSSSTAYMEFSSLTSEDSAVFYCARGGVRRYFDVWGAGTTVTVSS
VL: DIQMTQSPSSLSASLGERVSLTCRASQDIGSNLNWLQQKPDGTIKRLIYATSSLDSGVPKRFSGSRSGSDYSLTINSLESEDFVDYYCLQYASFPYTFGGGTKLEIK
B2: ch96C9E7 (antibody, V domains shown)
VH: EVQLQQSGPELVKPGASVKMSCKASGYTFTYYILHWVKQKPGQGLEWIGYFNPYNDGNKFNERFRGKATLTSDKSSSTAYMELNSLTSEDSAVYFCARGGVRRYFDVWGAGTTVTVSS
VL: B1 VL with K39E, Y49S, S52F, N76S, D85N
B3: ch110B4H5 (antibody, V domains shown)
VH: EVQLQQSGPELVKPGASVKMSCKASGYTFTFYIMHWVKQKPGQGPEWIGYINPYNDGTKYNAKFKGKATLSSDRSSSTAYMELSSLTSEDSAVYYCARGGVRRYFDVWGAGTPVTVSS
VL: B1 VL with A25S, K39E, S52F, D70H, N76S, D85V, A92G
B4: ch108C4C12 (antibody, V domains shown)
VH: B2 VH with Y31S, I33V, L34I, P41T, N58T, F60Y, R63E, R65K, S77N, E89D
VL: B1 VL with K39E, S52F, S53G, N76S, L89Q
B5: ch90G6H3 (antibody, V domains shown)
VH: QAYLQQSGAELVRSGASVKMSCKASGYTFTSYIMHWVKQTPGQGLEWIGYIYPGNGGTNYNQKFKDKATLSADTSSSTAYMQINSLTSEDSAVYFCARWGLRQGFAYWGQGTLVSVSA
VL: DIVMTQSQKFMSTSVGDRVSVTCKASQNVGGNVAWYQQKPGQSPKALIYSTSYRNSGVPDRFTGSGSGTDFTLTISNVQSEDLAEYFCQQYNSYPFTFGSGTKLEIR
B6: ch20C4E1 (antibody, V domains shown)
VH: EVRLVESGGALVRPGGSLKLSCAASGFTFSDYGMHWVRQAPEKGLEWIAFISSVSFTIYYADTVKGRFTISRDNAKNTLFLQMTSLRSEDTALYYCTRLGPHWYFDVWGTGTTVTVSS
VL: DVVLTQTPLSLPVSLGDQASISCRSSQSLVYSNGNTYLHWFLQKPGQSPQLLIYKVSNRFSGVPDRFSGSGSGTDFTLKISRVEAEDLGVYFCSQSTPVPTFGGGTKLEIK
B7: ch15D6G2 (antibody, V domains shown)
VH: EVQLVESGGDLVKPGGYLRLSCAASGFTFSSHGMSWVRQTPDKRLEWVATISSGGRNTYYPDSVKGRFTISRDNAKNILYLQMSSLKSEDTAMFYCTRHSGDAMDYWGQGTSVTVSS
VL: DILLTQSPAILSVSPGERVSFSCRASQSIGTNIHWYQQRTNGSPRLLIKYASESISGIPSRFSGSGSGTDFTLSINSVESEDIADYYCQQSKSWPTFGGGTKLEIK
B8: ch28H9C12 (antibody, V domains shown)
VH: EVQLVESGGGLVKPGGSLKLSCAASGFTFSDYGMHWVRQAPEKGLEWVAYISSGSSTIYYADTVKGRFTISRDNAKNTLFLQMTSLRSEDTAIYYCVRRPWYFDVWGTGTTVTVSS
VL: DVLMTQTPLSLPVSLGDQASISCRSSQSIVHSNGNTYLQWYLQKPGQSPKLLIYKVSNRFSGVPDRFSGSGSGTDFTLKISRLEAEDLGVYYCFQGSHVPFTFGSGTKLEIK
B9: ch12G12C2 (antibody, V domains shown)
VH: QIQLVQSGPELKMPGETVKISCKASGYTFTTYGLSWVKQAPGKGLKWMGWINTFSGVPIYADDFKGRFAFSLETSASTAYLQINNLKNEDTATYFCARWGIRQRGDYWGQGATLTVSS
VL: QIVLTQSPAIMSASPGEKVTMTCSASSSVSYLHWYQQKSGTSPKRWIYDTSKLASGVPVRFSGSGSETSYSLTISSMEAEDAATYYCQQWTSNPPTFGGGTKLEIK
B10: ch26E2H6 (antibody, V domains shown)
VH: EVQLVESGGDLVKPGGSLKLSCAASGFTFSSYGMSWVRQTPDKRLEWVATISSGGSYTYYPDSVKGRFTISRDNAKNTLYLQMSSLKSEDTAMYYCARHATDYWGQGTTLTVSS
VL: B9 VL with L32M, V59A, E67G, T91S, P95L, G99A, I105L
B11: ch101B3G3 (antibody, V domains shown)
VH: EVQLQQSGPELVKPGASMKISCKASGYSFTGYTMNWVKQSHGKNLEWIGLINPYNGGTRYNQKFKDKATLTVDKSSSTAYMELLSLTSEDSAVYYCARWLLRYAMDYWGQGTSVTVSS
VL: DIVMTQSQKFMSTSVGDRVSITCKASQNVGNAVAWYQQKPGHSPKLLISSASNRKNGVPDRFTGSGSGTDFTLTVSNMQSEDLADYFCQQYSDSSWTFGGGTKLEIK
B12: ch87A3G8 (antibody, V domains shown)
VH: QVQLKESGPGLVAPSQSLSITCTVSGFSLSSYSVYWVRQPPGKGLEWLGVIWAGGSTNYNSALMSRLSINKDKSKSQVFLKMNSLQTDDSAIYYCAMRWLPRGLDFWGQGTSVTVSS
VL: DIVMTQSHKFMSTSVGDRVSITCKASQDVGTAVAWYQQKPGQSPKLLIYWASTRHTGVPDRFTGSGSGTDFTLTISNVQSEDLADYFCQQYSTYYTFGGGTKLEIK
B13: ch89F11E3 (antibody, V domains shown)
VH: QVQLQQSGAELARPGASVKMSCKASGYTFTSSTIHWVKQRPGQGLAWIGYIVPSTGYTNYNQKFKDKATLTADKSSSTAYMQLTSLTSEDSAVYYCARSDGYPFGYSMAYWGQGTSVTVSS
VL: DIQMNQSPSSLSASLGDTITITCHASQNINVWLSWYHQKPGNIPKLLIYKASNLHTGVPSRFSGSGSGTGFTLTISRLQPEDIATYYCQQGQSYPFTFGSGTKLEIK

target: cynomolgus monkey GPRC5D (cynomolgus monkey); assay: FACS, HEK293T-cynoGPRC5D cells

binding, binds:
B1
B2
B3
B4
B5
B6
B7
B8
B9
B10
B11
B12
B13
